# Test results published in the supplement of paper PMC9135407.
# Several values for one entry are separate records, joined by “and”; a condition that tells them apart may be missing. Identical values can stand only once. Counter-ions that a name gives are not always drawn. ± gives the standard deviation of the averaged measurements. This is one part of the list. Baselines shift from plate to plate; read single values as rough.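 Culture-activated primary human stellate myofibroblasts, where regained lipid droplets signal inactivation. Value: share of Hoechst-counted cells above a per-plate Bodipy cutoff, in duplicate wells, with DMSO negative and nortriptyline positive controls on each plate. Hits: a control-normalized score above the plate's top-tenth-percentile nortriptyline wells, or one of a plate's three best wells. Final well concentrations are not given.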
# System: primary human hepatic stellate cells (donor 1)
# Assay: percent Bodipy-positive cells; higher = more lipid droplet accumulation
# Conditions: 48 h
# [1] = library stock concentration: 10 mM
# [2] = library stock concentration: 1 mM
smiles,measurement,setting,value
CN1C(=O)CN=C(c2ccccc2)c2cc(Cl)ccc21 [Diazepam],percent Bodipy-positive cells,[1],14.1 ± 3.6%
"COc1ccc2c(c1OC)CN1CCc3cc4c(cc3C1C2)OCO4 (centres undefined) [(d,l)-Tetrahydroberberine]",percent Bodipy-positive cells,,10 ± 2.8%
Cl.Oc1ccc2c3c1O[C@H]1c4[nH]c5ccccc5c4C[C@@]4(O)C(C2)N(CC2CC2)CCC314 (some centres undefined) [Naltrindole hydrochloride],percent Bodipy-positive cells,[1],95.4 ± 1.9%
CC1C=CC=CCCC=CC=CC=CC=CC(OC2OC(C)C(O)C(N)C2O)CC2OC(O)(CC(O)C(O)CCC(O)CC(O)CC(O)CC(=O)OC(C)C(C)C1O)CC(O)C2C(=O)O (centres undefined) [Nystatin],percent Bodipy-positive cells,[1],16.1 ± 2.5%
O=c1[nH]c2ccccc2n1C1CCN(CCCC(c2ccc(F)cc2)c2ccc(F)cc2)CC1 [Pimozide],percent Bodipy-positive cells,[1],99.08 ± 0.71%
"CC(N)C(O)c1ccc(O)c(O)c1 (single isomer, unassigned; (-)) [(-)-alpha-Methylnorepinephrine]",percent Bodipy-positive cells,[1],22.8 ± 7.2%
C[C@H]1O[C@@H](O[C@H]2CC[C@]3(C=O)[C@H]4CC[C@]5(C)[C@@H](C6=CC(=O)OC6)CC[C@]5(O)[C@@H]4CC[C@]3(O)C2)C[C@H](O)[C@@H]1O [Helveticoside],percent Bodipy-positive cells,,69.1 ± 23%
COC1(C[S@+]([O-])c2ccccc2)CCN(CCc2c[nH]c3ccc(F)cc23)CC1,percent Bodipy-positive cells,[1],39.011 ± 0.0064%
CC[N+]1(C)CCCC(OC(=O)C(O)(c2ccccc2)c2ccccc2)C1 (centres undefined) [Pipenzolate bromide],percent Bodipy-positive cells,,8.72 ± 3.6%
same,percent Bodipy-positive cells,[1],38 ± 8.5%
C/C=C(/C)C(=O)O[C@H]1C(C)=C2[C@H]([C@@H]1OC(=O)CCCCCCC)[C@@](C)(OC(C)=O)C[C@H](OC(=O)CCC)[C@@]1(O)[C@H]2OC(=O)[C@@]1(C)O [Thapsigargin],percent Bodipy-positive cells,library stock concentration: 7.7 mM,89.2 ± 5.5%
same,percent Bodipy-positive cells,[1],88.1 ± 17%
Cc1nnc2n1-c1sc(CCC(=O)N3CCOCC3)cc1C(c1ccccc1Cl)=NC2,percent Bodipy-positive cells,[1],6.86 ± 1.8%
C[C@@H]1O[C@@H](O[C@H]2C[C@@H](O)[C@]3(CO)[C@H]4[C@H](O)C[C@]5(C)[C@@H](C6=CC(=O)OC6)CC[C@]5(O)[C@@H]4CC[C@]3(O)C2)[C@H](O)[C@H](O)[C@H]1O.O.O.O.O.O.O.O.O [Strophantine octahydrate],percent Bodipy-positive cells,,92 ± 0.37%
"C[C@]12CC[C@@H](O)C[C@@H]1CC[C@@H]1[C@@H]2CC[C@]2(C)[C@@H](C(=O)CO)CC[C@@H]12 [3-alpha,21-Dihydroxy-5-alpha-pregnan-20-one]",percent Bodipy-positive cells,[1],25.6 ± 7.6%
CC1=C2C(=CO[C@H](C)[C@H]2C)C(O)=C(C(=O)O)C1=O [Citrinin],percent Bodipy-positive cells,[1],34.1 ± 6.4%
CCC[C@@H]1CC2=CC(=O)CC[C@]2(C)[C@H]2CC[C@@]3(C)[C@@H](CC[C@@]3(O)CCC(=O)O)[C@H]12,percent Bodipy-positive cells,[1],5.44 ± 0.77%
C=C1C/C(=C/C)C(=O)O[C@@H]2CCN3CC=C(COC(=O)[C@]1(C)O)[C@H]23 [Seneciphylline],percent Bodipy-positive cells,,29.3 ± 2.6%
c1ccc2c(c1)OCC(C1=NCCN1)O2 (centres undefined) [Idazoxan hydrochloride],percent Bodipy-positive cells,,15.8 ± 1.6%
"c1ccc(C2CNCc3ccccc32)cc1 (centres undefined) [4-Phenyl-1,2,3,4-tetrahydroisoquinoline hydrochloride]",percent Bodipy-positive cells,[1],26.4 ± 7.5%
CCCCCC[C@H]1C(=O)O[C@H](C)[C@H](NC(=O)c2cccc(NC=O)c2O)C(=O)O[C@@H](C)[C@@H]1OC(=O)CC(C)C [Antimycin A],percent Bodipy-positive cells,,43.8 ± 3.8%
COc1ccc2c(c1)[nH]c1c(C)nccc12.Cl [Harmine hydrochloride],percent Bodipy-positive cells,,87.3 ± 5.2%
NC(C(=O)O)c1nn[nH]n1 (racemic) [(RS)-(Tetrazol-5-yl)glycine],percent Bodipy-positive cells,[1],9.53 ± 3.8%
CCCN(CCC)[C@H]1CCc2c(F)ccc(O)c2C1 [S(-)-UH-301 hydrochloride],percent Bodipy-positive cells,[1],50 ± 6%
CCCCC/C=C\C/C=C\C/C=C\C/C=C\CCCC(N)=O [Arachidonamide],percent Bodipy-positive cells,[2],13 ± 11%
CCCCC/C=C\C/C=C\C/C=C\C/C=C\CCCC(N)=O [Arachidonoyl amide],percent Bodipy-positive cells,[2],14 ± 9%
CCCCCCCCCOc1ccc2[nH]cc(CCN)c2c1 [5-Nonyloxytryptamine],percent Bodipy-positive cells,library stock concentration: 9.9 mM,91.6 ± 6.1%
CCCN1CCC[C@@H]2Cc3n[nH]cc3C[C@H]21 [Quinpirole HCl (-)-],percent Bodipy-positive cells,library stock concentration: 9.1 mM,11.1 ± 3.2%
CCCN1CCC[C@@H]2Cc3n[nH]cc3C[C@H]21 [(?)-Quinpirole dihydrochloride],percent Bodipy-positive cells,[1],22 ± 4.4%
CCCN1CCC[C@@H]2Cc3n[nH]cc3C[C@H]21 [(-)-Quinpirole hydrochloride],percent Bodipy-positive cells,,7.38 ± 1.5%
same,percent Bodipy-positive cells,[1],13.8% and 8.76%
CCCCCCCCCCCCCCCCOC[C@@H](O)COP(=O)([O-])OCC[N+](C)(C)C,percent Bodipy-positive cells,[2],14.2% and 10.3%
"CC12NC(Cc3ccccc31)c1ccccc12 (single isomer, unassigned; (+)) [(+)-MK 801 maleate]",percent Bodipy-positive cells,[1],19 ± 2%
CCN1CCN(C(=O)Cc2ccc(Nc3ncc(F)c(Nc4ccc(C(=O)Nc5ccccc5Cl)cc4)n3)cc2)CC1 [Aurora A Inhibitor I],percent Bodipy-positive cells,[1],97.9 ± 1.9%
CC(C)c1cccc(C(C)C)c1O [Propofol],percent Bodipy-positive cells,,20.9 ± 5.7%
same,percent Bodipy-positive cells,[1],62.6 ± 1.7%
CC(C)c1cccc(C(C)C)c1O,percent Bodipy-positive cells,[1],28.2 ± 2.3%
CCCCCC(=O)N[C@H]1CCOC1=O [N-hexanoyl-L-Homoserine lactone],percent Bodipy-positive cells,[2],6.79 ± 1.4%
Cc1nccc2c1[nH]c1cc(O)ccc12 [Harmol hydrochloride],percent Bodipy-positive cells,[1],58.2 ± 25%
